# Data from PubChem BioAssay AID504467 (National Center for Advancing Translational Sciences (NCATS), 2011).
# Screen size: about 330,000 compounds; about 7,700 (2.3%) were called active. The shares of active, inactive and inconclusive entries below differ from those in the screen. Calls follow the shape of the dose curve; as a rule, active = well fitted inhibition curve with a large enough effect; inconclusive = small, poorly fitted or top-dose-only effect, or effect the other way; inactive = flat fitted curve, though single readings scatter. A potency beside an inconclusive call is a rough fit, not a confirmed value.
# Test: qHTS screen for small molecules that inhibit ELG1-dependent DNA repair in human embryonic kidney (HEK293T) cells expressing luciferase-tagged ELG1; also: nearly all actives have a fitted effect of over 55% in size
# Details: HEK293T ELG1-luciferase reporter, luminescence, 16 h, DNA damage induced by 5-fluorouridine; series mostly up to 46.1 µM
# Summary of the method: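 Reporter activity after DNA damage by 5-fluorouridine is monitored. Compound-treated cells incubate 16 hr at 37 °C, then ONE-Glo is added for 30 min before luminescence reading.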
# Potency is read from the fitted curve at half-maximal effect.
row,Structure (SMILES),Potency
1,COc1ccc(C(=O)Nc2nc(C)c(C(=O)N(C)C)s2)cc1OC,"inconclusive: 20.6 µM [activator, partial curve]"
2,COc1ccc(NC(=O)NC2CCCc3ccccc32)cc1OC (stereo not given),"inconclusive: 6.51 µM [activator, single point]"
3,CN(C(=O)CN1C(=O)/C(=C/c2ccc(Cl)cc2)SC1=S)C1CCS(=O)(=O)C1 (stereo not given),inactive
4,O=C(N1CCOCC1)N1c2ccccc2CC(N2CCOCC2)c2ccccc21 (stereo not given),"inconclusive: 1.46 µM [inhibitor, single point]"
5,C=CC[C@@H](CC(=O)N[C@@H](CO)Cc1ccccc1)C(=O)N[C@@H](C)COC(=O)[C@@H](CC=C)Cc1ccc(F)cc1,inactive
6,c1ccc(CCc2cc3ccccc3[nH]2)cc1,"inconclusive: 20.6 µM [activator, single point]"
7,Nc1ncnc2c1ncn2[C@@H]1O[C@H](COP(=O)(O)O)[C@@H](O)[C@H]1O,inactive
8,COc1ccc(NC(C)=O)cc1S(=O)(=O)Nc1ccc2c(c1)OCCO2,"inconclusive: 20.6 µM [activator, single point]"
9,O=C(Cn1cc(C(F)(F)F)cc(Cl)c1=O)NCCc1ccc(Cl)cc1Cl,inactive
10,CN(C)CCN(C(=O)c1ccc(S(=O)(=O)N(C)C)cc1)c1nc2cc3c(cc2s1)OCCO3,"inconclusive: 20.6 µM [activator, partial curve]"
11,C/C(=N\NC(=O)c1ccc([N+](=O)[O-])c(C)c1)c1ccccc1Cl,"inconclusive: 20.6 µM [activator, single point]"
12,O=C1CCN(Cc2ccccc2)CCN1[C@H](COc1ccccc1)Cc1ccccc1,inactive
13,O=C(/C=C/Nc1ccc(Br)cn1)c1cccc(OC(F)F)c1,"inconclusive: 8.2 µM [activator, partial curve]"
14,CN(C(=O)COC(=O)c1ccc2c(=O)n3c(nc2c1)CCC3)C1CCS(=O)(=O)C1 (stereo not given),"inconclusive: 0.259 µM [activator, full curve, poor fit]"
15,COc1ccccc1-c1coc2cc(O)cc(O)c2c1=O,"inconclusive: 14.6 µM [activator, partial curve]"
16,COCCN(C(=O)CSc1nnc(C)n1-c1ccccc1)c1c(N)n(Cc2ccccc2)c(=O)[nH]c1=O,"inconclusive: 18.4 µM [activator, single point]"
17,O=C(Nc1ccc(C(=O)N2CCOCC2)cc1)Nc1cccc2ccccc12,"inconclusive: 29.1 µM [activator, single point]"
18,O=C(c1cc(-c2cccs2)on1)N1CCN(c2ccccc2)CC1,inactive
19,CCOC(=O)c1c2ccc(OCC(=O)N/N=C/c3ccc(C)cc3)cc2n2ccccc12,"inconclusive: 0.517 µM [inhibitor, full curve, poor fit]"
20,O=C(O)COc1ccc(/C=C/C(=O)c2ccc(C3CCCCC3)cc2)cc1,"inconclusive: 18.3 µM [activator, partial curve]"
21,Cc1ccc(-c2n[nH]c3c2CCC3)cc1,"inconclusive: 29.1 µM [activator, partial curve, poor fit]"
22,CCOc1ccc(C(=O)Nc2ccc(NC(=O)c3ccccc3)cc2)cc1Br,inactive
23,CCN(Cc1ccccc1)S(=O)(=O)c1ccc(C(=O)N(CCCN(C)C)c2nc3cc4c(cc3s2)OCO4)cc1,"inconclusive: 16.4 µM [inhibitor, partial curve, poor fit]"

row,Structure (SMILES),Potency
1,CC(C)Cn1c([N+](=O)[O-])nc2c1c(=O)[nH]c(=O)n2C,active: 23.1 µM
2,CCc1ccc2c(c1)c1nc(C)sc1n2CC,inactive
3,CCN(CC)c1ccc(/C=N/NC(=O)c2cnccn2)c(O)c1,active: 1.46 µM
4,Cc1cc(C(=O)CCl)c(C)n1CCc1ccc(Cl)cc1,"inconclusive: 25.9 µM [activator, single point]"
5,COc1ccc(C2NS(=O)(=O)OCC2C)cc1 (stereo not given),inactive
6,Cc1ccc(NC(=O)CNCc2ccccc2Cl)cc1S(=O)(=O)N(C)C,inactive
7,COc1ccccc1C(=O)NCc1ccc2c(c1)OCO2,"inconclusive: 35.5 µM [inhibitor, single point]"
8,O=S(=O)(NCC1CCN(c2ccc(S(=O)(=O)N3CCOCC3)cc2)CC1)c1ccc(F)cc1,"inconclusive: 14.6 µM [inhibitor, partial curve, poor fit]"
9,COc1cccc(/C=N/NC(=S)NCc2ccco2)c1OC,"inconclusive: 14.6 µM [inhibitor, partial curve, poor fit]"
10,Cc1ccc(NC(=O)CCCCCNS(=O)(=O)c2ccc(C)cc2)cc1,"inconclusive: 13 µM [inhibitor, partial curve]"
11,CCCCC(=O)Nc1ccc(N2CCN(c3ccc(F)cc3)CC2)cc1,inactive
12,Cc1ccc(C(=O)NCCN2CCOCC2)cc1,"inconclusive: 29.1 µM [activator, single point]"
13,CCC(CO)Oc1cc(NC(=O)Cc2ccccc2)c2ncn(C(C)C)c2c1 (stereo not given),"inconclusive: 14.6 µM [inhibitor, partial curve]"
14,COC(=O)c1ccc(COC(=O)c2c(C)nn(Cc3ccccc3Cl)c2Cl)o1,"inconclusive: 29.1 µM [inhibitor, single point]"
15,Cc1ccsc1/C=N/Nc1ncnc2nc[nH]c12,"inconclusive: 16.4 µM [activator, partial curve]"
16,CCN1C(=O)S/C(=C/c2ccsc2)C1=O,"inconclusive: 18.4 µM [activator, single point]"
17,Cc1cc(C(=O)NC(C)C)on1,inactive
18,COc1cc(C(=O)NCC(=O)OCc2ccccc2Cl)cc(OC)c1OC,inactive
19,Cc1cccc(NC(=O)c2ccoc2C)n1,"inconclusive: 16.4 µM [activator, partial curve]"
20,O=C(Nc1ccccc1Cl)NC1CCCCCCC1,"inconclusive: 23.1 µM [activator, single point]"
21,CC(C)c1ccc(/C=C/C2=NNC(=O)CC2)cc1,"inconclusive: 6.51 µM [activator, partial curve]"
22,CC1=NN(c2ccccc2)C(=O)C1N=Nc1cccc(O)c1 (stereo not given),"inconclusive: 10.3 µM [activator, partial curve]"

# Part of the list above, bar-delimited:
row | Structure (SMILES) | Potency
3 | CN(C(=O)CN1C(=O)/C(=C/c2ccc(Cl)cc2)SC1=S)C1CCS(=O)(=O)C1 (stereo not given) | inactive
17 | Cc1cc(C(=O)NC(C)C)on1 | inactive
20 | O=C(Nc1ccccc1Cl)NC1CCCCCCC1 | inconclusive: 23.1 µM [activator, single point]
